No constants are given. Whether binding was seen depends on the method and setting. Binding seen in cells or lysates may run through a third protein. These calls come from enrichment with a bait or labelling near it, and not all partners need be listed. Tags and fused reporters may be left off the sequences shown.
Target: T1, Myc-tagged Drosophila Naa30A (CG11412) (Drosophila melanogaster) (UniProt Q95RC0)
T1 sequence: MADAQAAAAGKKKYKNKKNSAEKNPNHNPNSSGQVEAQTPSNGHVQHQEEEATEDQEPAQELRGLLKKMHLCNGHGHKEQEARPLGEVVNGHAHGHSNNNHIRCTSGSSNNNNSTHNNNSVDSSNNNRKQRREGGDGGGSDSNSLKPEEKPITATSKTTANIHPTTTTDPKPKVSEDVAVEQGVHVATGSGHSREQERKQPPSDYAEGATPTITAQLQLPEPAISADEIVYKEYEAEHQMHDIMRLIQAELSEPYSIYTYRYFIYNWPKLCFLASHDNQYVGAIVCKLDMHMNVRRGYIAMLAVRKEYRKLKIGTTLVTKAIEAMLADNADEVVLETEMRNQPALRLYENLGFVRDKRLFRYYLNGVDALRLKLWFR
Test: affinity purification with mass spectrometry; immunoprecipitation with an anti-Myc antibody from Drosophila embryos expressing Myc-tagged Naa30A (UAS/Gal4, nanos-Gal4 driver), mass spectrometry

B1: Drosophila orthologue of NAA35/Mak10 (CG4065) (protein, UniProt Q9W1A2 1-784)
chain: MYPSTLPAEADPSTMNGSSVAEPPDFQAATAAAAAAARASSLEQDEWSVGECGFLDPDVQRTMRSGSAAEDITQYPMHGWVDVTKEFHDACAELQPGELAQDMLFGLFEAMSAIEIMDPKMDVGMGFDKQDLPPPSFEAAIATGAIKLDDLTPSELIGIYDALFSCLVSWLEGNSMDQVLFTCLYLHAPAQIKDKALRVFCTAVRNLIVVIKKIIAVAAVNEEEDFQLYGNSALLAAEKAQPATVYSSLKDVEDELIRKCKKLTSTEDWMAVVHRLRFMRHLFQVIYHVEQMASNDTVDDKVDIYKILLVASEMLPGIRNTLDRGTQPEKGSDAPNPMGFSPRIHDRSQPPAFPRSIKIRDRPSSYQFLEEMISRFKYACKVTKYKDYYSALNFFIEYSKKSGQCILSRSVLQTLFSANMRMAHGKLPMKQFLRHSVQVFNSPPVLNAKHPVAADPKVQQHLENFFRYCINMNTFTQFIRICGFNRARQRDKLARLIENFDTIQVDAARLDSMMNQLANERAMEGNEPMATALKHSTHFSTWVLYNCFRAMLIFLMSGFELELYAVHEFLYIYWYPYEFLIGFLVSALTRTENILLAQEEYAEHQSKTQSGGSGAAKNRKAAKPKKNKKTQRPYRAEIVFYHALLSLCGGMYKAMGALTKDGRVRLPLSKFDNEEIRYNRRFLPFATLTSPPPVSYAEFKNVREHMMRHSVEDLYTYAAKHFDQARNVLESIQNPDQEMLDLLQIARTNFVVMNVLARGHQKEVKRQPEFDFSKHSYFPIIKLK
binding: binds

B2: Drosophila orthologue of NAA38/Mak31 (CG31950) (protein, UniProt Q8IPZ7 1-121)
chain: MTELSITGQQVMPPPACTPPEPFRITTNAPHQMNDASLTPGRRKLQKWLGRVLRIVITDGRVLVGFFNCTDRDANIVLSMCAEYLVEGQEPRLLGNVMVPGQHIVSLSIDEPDPQSSLLVQ
binding: binds

Reference: paper PMC10611716
